Earlier results as cited in patent US4788181A, “5-substituted-2',3'-dideoxycytidine compounds with anti-HTLV-III activity” (priority 1986, dated 1988).
The name of at least one read-out is uncertain.

Tested on: HTLV-III/LAV
Conditions: 0.5 and 5.0 micromoles; cited from earlier work

Nc1ccn([C@H]2CC[C@@H](CO)O2)c(=O)n1 [Compound 1, 2',3'-dideoxycytidine]
protection to T4^+ lymphocytes exposed to HTLV-III/LAV: ~100%
